The results in this text go back to the supplement of paper PMC12889115.

The test has as its system Salmonella enterica serovar Typhimurium SL1344. The test can be described thus: bacterial growth OD600 after 18 h with compound and polymyxin B; higher = more bacterial growth (less inhibition). As to conditions: 50 µM, Mueller-Hinton broth.

The other results are listed elsewhere or left out. These are raw signals, not scaled to a control.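 Primary screen: polymyxin B was added at a level permeabilizing Salmonella outer membranes while sparing inner membranes. DMSO wells, both with and without polymyxin B, established maximum growth. Plate-to-plate variation meant each plate was ranked on its own, and the lowest-OD600 compounds were selected as hits.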

In the case of `CCOc1ccccc1-c1nc(CN(C)C(C)c2cccc(OC)c2)c(C)o1` (configuration not stated), the “bacterial growth OD600” value (polymyxin B 1 µg/mL) worked out at 0.799.
As to `COc1cccc(-c2ccc(NC(=O)C3CCCN3C3CCSCC3)cc2)c1` (configuration not stated), the “bacterial growth OD600” value (polymyxin B 0.75 µg/mL) is 0.515.
As to `CCc1noc(CN(CC)c2ccc(-c3nc(C(C)C)no3)cn2)n1`, the “bacterial growth OD600” value (polymyxin B 0.75 µg/mL) turned out to be 0.653.
With `O[C@@H]1CN(Cc2ccc(OC(F)F)cc2)CC[C@H]1N1CCN(CCc2ccccc2)CC1`, the “bacterial growth OD600” value (polymyxin B 1 µg/mL) is 1.18.
Turning to `CCCC(=O)N1CCCCC1C(=O)Nc1cccc(-c2nnc(C)s2)c1` (configuration not stated), the “bacterial growth OD600” value (polymyxin B 1 µg/mL) was 1.07.
Consider `O=C(C1CC1)N1CCC(Oc2ccc(C(=O)N3C[C@@H]4CCC[C@H]3C4)cc2)CC1`, for which the “bacterial growth OD600” value (polymyxin B 1 µg/mL) turned out to be 0.853.
Regarding `COc1ccc(OC2CCN(C(C)=O)CC2)c(C(=O)NCc2cccs2)c1`, for the setting “polymyxin B 1 µg/mL”, the “bacterial growth OD600” value is 1.05.
Consider `COCc1ccc(C(=O)Nc2ccc(-c3nc(CNC(=O)c4cnccn4)c(C)o3)cc2)o1`, for which the “bacterial growth OD600” value (polymyxin B 0.75 µg/mL) was 0.735.
Take `Cc1cc(C)n(Cc2ccc(C(=O)N3CCCC(c4nc(C)ncc4-c4ccc(F)cc4)C3)cc2)n1` (configuration not stated): the “bacterial growth OD600” value (polymyxin B 0.75 µg/mL) was determined as 0.716.
Turning to `COc1cccc(N2C(=O)CN(C(=O)CN3C(=O)c4ccccc4C3=O)CC2C)c1` (configuration not stated), the “bacterial growth OD600” value (polymyxin B 0.75 µg/mL) was determined as 0.82.
Consider `COc1ccc(CN2CCC(CO)(Cc3ccc(Cl)cc3)CC2)c(OC)c1C`, for which, for the setting “polymyxin B 0.75 µg/mL”, the “bacterial growth OD600” value worked out at 0.728.
On to `COCCN1CC(C(=O)NCCc2nc(-c3ccccc3)no2)CCC1=O` (configuration not stated), for which, for the setting “polymyxin B 1 µg/mL”, the “bacterial growth OD600” value came out at 0.948.
In the case of `COc1ccc(Cl)cc1NC(=O)CCC1CCCN(C(=O)CCc2c(C)noc2C)C1` (configuration not stated), under “polymyxin B 1 µg/mL”, the “bacterial growth OD600” value was 0.966.
On to `COc1ccc(N2CCN(C3CCCN(C(=O)c4ccccc4SC)C3)CC2)cc1` (configuration not stated), for which the “bacterial growth OD600” value (polymyxin B 1 µg/mL) is 0.875.
As to `CCC1CN(CC(=O)NC2CCc3ccccc32)Cc2cc(OC)ccc2O1` (configuration not stated), the “bacterial growth OD600” value (polymyxin B 0.75 µg/mL) stood at 0.661.
As for `CN(C)c1nc2nonc2nc1N1CCc2ccccc2C1`, the “bacterial growth OD600” value (polymyxin B 0.75 µg/mL) turned out to be 0.717.
For `CC1(CCC(=O)NCCc2nc(-c3ccccc3)cs2)CCC(=O)N1` (configuration not stated), where the note is “polymyxin B 0.75 µg/mL”, the “bacterial growth OD600” value is 0.89.
Same read-out and setting: the result for `O=C(Cc1cscn1)NCc1nc(NCCCc2ccccc2)c2ccccc2n1` reads 0.015.
For `Cc1ccccc1-c1nn(-c2ccc(F)cc2F)cc1CN1CCC(C(N)=O)CC1`, the “bacterial growth OD600” value (polymyxin B 1 µg/mL) is 0.933.
Consider `CCc1ccc(CN2CCN(Cc3ccccc3F)C(CCO)C2)cc1` (configuration not stated), for which the “bacterial growth OD600” value (polymyxin B 1 µg/mL) was 0.962.
`CC(C)(C)CN1CCCC(O)(CN2CCSCC2)C1=O` (configuration not stated): the “bacterial growth OD600” value (polymyxin B 0.75 µg/mL) stood at 0.77.
On to `O=C(NCCc1cnn(-c2ccccc2)c1)C1CCC(=O)N(C2CC2)C1` (configuration not stated), for which the “bacterial growth OD600” value (polymyxin B 1 µg/mL) turned out to be 0.836.
With `COCC1CCCN(Cc2ccc3c(c2)CN(C(=O)Cc2nnc(-c4ccccc4)[nH]2)CCO3)C1` (configuration not stated), where the note is “polymyxin B 0.75 µg/mL”, the “bacterial growth OD600” value worked out at 0.793.
Turning to `COc1cccc(C(=O)N2CCN(C(=O)CSc3ccc4nnc(-c5cccnc5)n4n3)CC2)c1`, the “bacterial growth OD600” value (polymyxin B 0.75 µg/mL) was determined as 0.806.
With `CCC(C)NC(=O)c1coc(COc2cccc(F)c2)n1` (configuration not stated), the “bacterial growth OD600” value (polymyxin B 0.75 µg/mL) was 0.817.
With `NC(=O)C1CCCN(C(=O)c2coc(CN3CCN(c4ccccc4F)CC3)n2)C1` (configuration not stated), the “bacterial growth OD600” value (polymyxin B 0.75 µg/mL) was found to be 0.875.
Still for that read-out and setting: for `NC(=O)C1CCCN(Cc2cn(Cc3ccccc3)nc2-c2ccc3c(c2)OCO3)C1` (configuration not stated) the value was 0.834.
Consider `CN(C(=O)CSc1ccccn1)C1CCCN(C2Cc3ccccc3C2)C1` (configuration not stated), for which the “bacterial growth OD600” value (polymyxin B 1 µg/mL) is 0.809.
`OC(CCc1ccccc1)c1ccc2c(c1)CN(Cc1cccc3c1OCO3)CCO2` (configuration not stated): the “bacterial growth OD600” value (polymyxin B 0.75 µg/mL) was determined as 0.003.
On the same count and under the same terms, for `CC1=C(C(=O)N2CCC(C3CCN(Cc4cccnc4)CC3)C2)OCCO1` (configuration not stated) the value was 0.823.
Turning to `CC(C)OCCNc1nc2nonc2nc1NC1CCCC1`, the “bacterial growth OD600” value (polymyxin B 1 µg/mL) was determined as 0.816.
On the same count and under the same terms, the result for `Cc1ccc(S(=O)(=O)N2CCC(CO)(Cc3cccc(C(F)(F)F)c3)CC2)s1` reads 0.014.
